Laboratory results reported in article PMC9944328.
Where two headings read alike, the source gives them in different places. These are yes or no findings as the source states them, for the method shown. In cells and extracts the contact can be indirect. Some results given as binding are weak or reduced against the parent protein; the word gives no strength.

Chains of the proteins cited; added tags and fusions are not shown. Lines headed by an entry give the natural chain unless they say otherwise; changes in a name come on top. A line that says so, or that is headed by a name, gives the form on record, which may keep a tag or linker.
UniProt P30874: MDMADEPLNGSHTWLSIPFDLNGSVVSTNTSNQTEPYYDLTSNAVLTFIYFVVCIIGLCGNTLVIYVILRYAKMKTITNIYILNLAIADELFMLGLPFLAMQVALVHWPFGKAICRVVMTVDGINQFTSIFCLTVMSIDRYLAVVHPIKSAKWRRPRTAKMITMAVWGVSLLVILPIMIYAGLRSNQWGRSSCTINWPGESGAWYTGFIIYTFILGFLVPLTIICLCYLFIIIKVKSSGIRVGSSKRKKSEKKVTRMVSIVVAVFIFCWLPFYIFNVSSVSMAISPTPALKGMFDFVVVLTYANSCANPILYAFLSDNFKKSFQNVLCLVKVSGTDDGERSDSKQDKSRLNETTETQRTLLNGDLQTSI
SSTR2 K291^7.32A-SmBiT (P30874, form named): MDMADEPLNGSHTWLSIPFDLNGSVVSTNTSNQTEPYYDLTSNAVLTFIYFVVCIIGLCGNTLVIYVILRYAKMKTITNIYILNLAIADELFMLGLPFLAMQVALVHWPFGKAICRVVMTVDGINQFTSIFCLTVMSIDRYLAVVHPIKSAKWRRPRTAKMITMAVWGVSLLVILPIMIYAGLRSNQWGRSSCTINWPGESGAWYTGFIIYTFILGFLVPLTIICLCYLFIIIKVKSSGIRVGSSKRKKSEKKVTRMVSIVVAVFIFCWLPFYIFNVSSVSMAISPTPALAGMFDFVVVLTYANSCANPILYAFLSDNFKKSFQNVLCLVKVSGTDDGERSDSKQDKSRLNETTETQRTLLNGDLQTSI
SSTR2 I284^ECL3A-SmBiT (P30874, form named): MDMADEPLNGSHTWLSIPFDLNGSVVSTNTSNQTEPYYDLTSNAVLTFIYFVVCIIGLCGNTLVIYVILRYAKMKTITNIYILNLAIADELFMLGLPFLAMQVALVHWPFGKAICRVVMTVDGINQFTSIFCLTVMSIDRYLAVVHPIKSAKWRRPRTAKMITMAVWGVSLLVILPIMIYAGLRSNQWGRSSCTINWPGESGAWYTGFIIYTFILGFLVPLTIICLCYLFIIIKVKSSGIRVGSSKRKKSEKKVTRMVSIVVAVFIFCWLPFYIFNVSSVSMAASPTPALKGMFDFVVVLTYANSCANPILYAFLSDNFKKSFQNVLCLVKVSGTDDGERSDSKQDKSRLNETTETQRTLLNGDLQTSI
SSTR2 Y302^7.43A-SmBiT (P30874, form named): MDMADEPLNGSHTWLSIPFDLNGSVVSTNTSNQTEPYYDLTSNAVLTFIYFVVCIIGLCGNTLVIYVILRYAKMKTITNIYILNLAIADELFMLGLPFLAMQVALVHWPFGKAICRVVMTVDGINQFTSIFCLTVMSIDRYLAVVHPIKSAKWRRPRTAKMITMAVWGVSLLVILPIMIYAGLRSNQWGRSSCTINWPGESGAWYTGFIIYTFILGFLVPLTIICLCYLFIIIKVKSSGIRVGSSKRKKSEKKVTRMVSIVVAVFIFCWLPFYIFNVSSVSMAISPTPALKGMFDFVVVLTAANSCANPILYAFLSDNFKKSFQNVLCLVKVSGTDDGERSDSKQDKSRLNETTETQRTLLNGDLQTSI
SSTR2 N276^6.55A-SmBiT (P30874, form named): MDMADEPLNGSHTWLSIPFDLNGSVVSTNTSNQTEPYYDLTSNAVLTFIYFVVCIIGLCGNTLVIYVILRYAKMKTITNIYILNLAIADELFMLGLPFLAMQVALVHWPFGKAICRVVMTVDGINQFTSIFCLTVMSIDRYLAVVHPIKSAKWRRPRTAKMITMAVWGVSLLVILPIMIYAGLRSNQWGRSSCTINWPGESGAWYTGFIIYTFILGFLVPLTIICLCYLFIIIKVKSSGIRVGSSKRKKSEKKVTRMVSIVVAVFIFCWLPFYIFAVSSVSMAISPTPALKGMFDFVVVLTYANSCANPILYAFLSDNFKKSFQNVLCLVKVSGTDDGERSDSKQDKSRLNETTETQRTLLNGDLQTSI
SSTR2 F294^7.35A-SmBiT (P30874, form named): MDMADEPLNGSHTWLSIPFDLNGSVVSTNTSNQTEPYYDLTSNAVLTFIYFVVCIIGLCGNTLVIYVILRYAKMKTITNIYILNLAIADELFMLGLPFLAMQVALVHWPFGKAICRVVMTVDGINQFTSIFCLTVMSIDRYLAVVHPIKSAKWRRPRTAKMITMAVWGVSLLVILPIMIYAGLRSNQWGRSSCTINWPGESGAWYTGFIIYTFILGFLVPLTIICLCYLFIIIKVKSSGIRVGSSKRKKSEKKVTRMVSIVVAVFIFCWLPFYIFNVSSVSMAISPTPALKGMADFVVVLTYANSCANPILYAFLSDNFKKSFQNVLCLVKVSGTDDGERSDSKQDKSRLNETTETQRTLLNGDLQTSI
SSTR2 I130^3.40A (P30874, form named): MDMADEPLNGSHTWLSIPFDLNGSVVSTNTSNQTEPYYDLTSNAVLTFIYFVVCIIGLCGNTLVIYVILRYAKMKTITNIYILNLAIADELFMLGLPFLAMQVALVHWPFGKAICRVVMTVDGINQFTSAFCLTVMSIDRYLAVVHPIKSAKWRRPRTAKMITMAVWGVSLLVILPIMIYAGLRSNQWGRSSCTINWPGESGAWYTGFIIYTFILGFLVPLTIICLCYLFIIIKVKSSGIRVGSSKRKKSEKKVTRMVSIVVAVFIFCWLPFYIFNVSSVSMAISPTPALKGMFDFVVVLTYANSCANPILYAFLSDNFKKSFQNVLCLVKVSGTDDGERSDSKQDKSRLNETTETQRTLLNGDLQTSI
SSTR2 L99^2.60A (P30874, form named): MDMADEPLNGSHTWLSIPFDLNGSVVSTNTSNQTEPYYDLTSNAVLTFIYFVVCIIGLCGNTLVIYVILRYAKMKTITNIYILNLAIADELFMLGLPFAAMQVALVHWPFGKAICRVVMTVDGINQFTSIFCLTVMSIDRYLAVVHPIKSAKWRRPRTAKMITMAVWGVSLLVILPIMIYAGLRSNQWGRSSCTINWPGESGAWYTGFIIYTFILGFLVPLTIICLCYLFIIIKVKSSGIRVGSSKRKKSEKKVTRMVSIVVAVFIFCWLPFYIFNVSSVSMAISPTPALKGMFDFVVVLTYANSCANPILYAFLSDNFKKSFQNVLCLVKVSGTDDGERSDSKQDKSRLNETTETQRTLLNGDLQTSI
SSTR2 F208^5.38A (P30874, form named): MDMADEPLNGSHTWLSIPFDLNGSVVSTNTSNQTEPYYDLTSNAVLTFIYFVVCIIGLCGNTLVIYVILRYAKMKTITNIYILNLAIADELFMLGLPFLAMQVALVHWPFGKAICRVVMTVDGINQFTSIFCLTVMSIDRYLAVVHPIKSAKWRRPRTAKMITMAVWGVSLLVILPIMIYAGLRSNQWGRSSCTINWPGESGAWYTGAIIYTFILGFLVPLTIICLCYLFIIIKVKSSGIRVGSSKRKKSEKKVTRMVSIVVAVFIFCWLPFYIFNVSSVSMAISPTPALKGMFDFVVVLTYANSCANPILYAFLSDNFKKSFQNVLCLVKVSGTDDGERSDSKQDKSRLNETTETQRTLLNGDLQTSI
SSTR2 P220^5.50A (P30874, form named): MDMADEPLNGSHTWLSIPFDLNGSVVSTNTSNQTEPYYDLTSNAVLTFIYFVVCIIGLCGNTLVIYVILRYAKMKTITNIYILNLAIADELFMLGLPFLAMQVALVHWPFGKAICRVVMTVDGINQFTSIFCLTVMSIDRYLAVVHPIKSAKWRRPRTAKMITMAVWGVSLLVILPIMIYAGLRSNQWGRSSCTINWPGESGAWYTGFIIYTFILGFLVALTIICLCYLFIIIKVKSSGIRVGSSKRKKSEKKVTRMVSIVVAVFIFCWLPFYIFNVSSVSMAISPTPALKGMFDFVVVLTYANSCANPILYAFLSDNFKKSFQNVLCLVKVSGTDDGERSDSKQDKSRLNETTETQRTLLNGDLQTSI
SSTR2 Q126^3.36A (P30874, form named): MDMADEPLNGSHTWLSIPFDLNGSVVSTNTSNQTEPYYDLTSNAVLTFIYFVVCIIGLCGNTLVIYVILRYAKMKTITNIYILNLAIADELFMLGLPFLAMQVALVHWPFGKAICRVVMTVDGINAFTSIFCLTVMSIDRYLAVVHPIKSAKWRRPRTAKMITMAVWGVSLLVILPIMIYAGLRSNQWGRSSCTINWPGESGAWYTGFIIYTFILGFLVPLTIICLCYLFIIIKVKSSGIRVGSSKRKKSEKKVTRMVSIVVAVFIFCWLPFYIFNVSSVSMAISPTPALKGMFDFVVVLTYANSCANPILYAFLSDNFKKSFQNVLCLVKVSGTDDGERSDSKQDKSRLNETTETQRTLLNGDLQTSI
SSTR2 F265^6.44A (P30874, form named): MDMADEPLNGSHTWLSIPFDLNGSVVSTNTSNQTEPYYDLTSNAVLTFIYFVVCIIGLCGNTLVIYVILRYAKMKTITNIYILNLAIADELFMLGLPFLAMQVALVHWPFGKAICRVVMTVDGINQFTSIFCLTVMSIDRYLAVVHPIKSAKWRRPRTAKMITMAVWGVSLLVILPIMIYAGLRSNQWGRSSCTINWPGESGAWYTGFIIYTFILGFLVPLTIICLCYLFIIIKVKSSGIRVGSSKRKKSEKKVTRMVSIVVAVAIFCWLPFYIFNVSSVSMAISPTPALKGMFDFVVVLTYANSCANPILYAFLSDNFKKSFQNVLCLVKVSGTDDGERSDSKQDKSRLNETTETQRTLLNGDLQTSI
SSTR2 Q102^2.63A (P30874, form named): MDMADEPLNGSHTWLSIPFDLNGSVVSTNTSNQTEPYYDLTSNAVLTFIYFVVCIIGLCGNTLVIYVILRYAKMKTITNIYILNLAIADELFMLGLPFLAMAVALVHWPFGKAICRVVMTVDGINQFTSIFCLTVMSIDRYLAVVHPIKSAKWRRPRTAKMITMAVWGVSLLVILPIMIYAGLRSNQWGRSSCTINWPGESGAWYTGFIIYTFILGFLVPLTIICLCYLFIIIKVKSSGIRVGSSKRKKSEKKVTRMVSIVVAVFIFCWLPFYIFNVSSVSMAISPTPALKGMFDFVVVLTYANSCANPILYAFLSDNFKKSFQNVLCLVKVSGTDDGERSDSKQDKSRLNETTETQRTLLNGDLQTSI
UniProt P49407: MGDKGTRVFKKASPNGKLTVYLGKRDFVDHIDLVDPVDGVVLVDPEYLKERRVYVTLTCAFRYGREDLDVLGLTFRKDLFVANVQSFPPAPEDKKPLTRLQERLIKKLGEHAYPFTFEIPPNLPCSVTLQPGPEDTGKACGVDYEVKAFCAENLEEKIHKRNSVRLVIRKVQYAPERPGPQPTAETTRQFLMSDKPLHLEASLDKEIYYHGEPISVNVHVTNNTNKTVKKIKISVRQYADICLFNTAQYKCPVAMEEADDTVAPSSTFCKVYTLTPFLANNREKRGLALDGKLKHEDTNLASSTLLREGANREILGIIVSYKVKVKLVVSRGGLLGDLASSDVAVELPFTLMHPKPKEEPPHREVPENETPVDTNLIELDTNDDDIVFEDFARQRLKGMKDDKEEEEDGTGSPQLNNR

What was measured:
Experiment in all cases: split reporter
[1] = target: SSTR2-SmBiT, wild type (human full-length SSTR2) (human) (UniProt P30874)
[2] = target: SSTR2 K291^7.32A-SmBiT (human) (UniProt P30874)
[3] = target: SSTR2-SmBiT, wild type (human full-length SSTR2) (human) (UniProt P30874); remark: listed apart in the source
[4] = target: SSTR2 I284^ECL3A-SmBiT (human) (UniProt P30874)
[5] = target: SSTR2 Y302^7.43A-SmBiT (human) (UniProt P30874)
[6] = target: SSTR2 K291^7.32A-SmBiT (human) (UniProt P30874); remark: listed apart in the source
[7] = target: SSTR2 N276^6.55A-SmBiT (human) (UniProt P30874)
[8] = target: SSTR2 F294^7.35A-SmBiT (human) (UniProt P30874)
[9] = target: SSTR2 I284^ECL3A-SmBiT (human) (UniProt P30874); remark: listed apart in the source
[10] = target: SSTR2 Y302^7.43A-SmBiT (human) (UniProt P30874); remark: listed apart in the source
SSTR2 I130^3.40A (human) [11] = target: SSTR2 I130^3.40A (human) (UniProt P30874)
SSTR2 L99^2.60A (human) = SSTR2 L99^2.60A (human) (UniProt P30874)
SSTR2 F208^5.38A (human) = SSTR2 F208^5.38A (human) (UniProt P30874)
SSTR2 P220^5.50A (human) = SSTR2 P220^5.50A (human) (UniProt P30874)
SSTR2 Q126^3.36A (human) = SSTR2 Q126^3.36A (human) (UniProt P30874)
SSTR2 F265^6.44A (human) [12] = target: SSTR2 F265^6.44A (human) (UniProt P30874)
SSTR2 Q102^2.63A (human) [13] = target: SSTR2 Q102^2.63A (human) (UniProt P30874)
SSTR2 I130^3.40A (human) [14] = target: SSTR2 I130^3.40A (human) (UniProt P30874); remark: listed apart in the source
SSTR2 F265^6.44A (human) [15] = target: SSTR2 F265^6.44A (human) (UniProt P30874); remark: listed apart in the source
SSTR2 Q102^2.63A (human) [16] = target: SSTR2 Q102^2.63A (human) (UniProt P30874); remark: listed apart in the source

Measured: binding

LgBiT-β-arrestin 1 (human full-length β-arrestin 1) (from UniProt P49407 1-418)
binds: [1] | [2] | [3] | [4] | [5] | [6] | [7] | [8] | [9] | [10]

human full-length β-arrestin 1 with LgBiT at the N-terminus (from UniProt P49407 1-418)
binds: SSTR2 I130^3.40A (human) [11] | SSTR2 L99^2.60A (human) | SSTR2 F208^5.38A (human) | SSTR2 P220^5.50A (human) | SSTR2 Q126^3.36A (human) | SSTR2 F265^6.44A (human) [12] | SSTR2 Q102^2.63A (human) [13] | SSTR2 I130^3.40A (human) [14] | SSTR2 F265^6.44A (human) [15] | SSTR2 Q102^2.63A (human) [16]
